These are yes or no findings as the source states them, for the method shown. Some binding calls cover weakened binding; strength is not graded here.
Assays:
[1] = target: PD-1 on PD-1-expressing 300.19 cells (UniProt Q15116); test: FACS competition binding, Experiment 1: test mAb serially diluted against a constant concentration of Alexa 488-labeled murine mAb BAP049 (competitor) on PD-1-expressing 300.19 cells; x axis is the ratio conc. test mAb / conc. labelled murine mAb
[2] = target: PD-1 on PD-1-expressing 300.19 cells (UniProt Q15116); test: FACS competition binding, Experiment 2: test mAb serially diluted against a constant concentration of Alexa 488-labeled murine mAb BAP049 (competitor) on PD-1-expressing 300.19 cells; x axis is the ratio conc. test mAb / conc. labelled murine mAb
[3] = target: Programmed Death 1 (PD-1) (UniProt Q15116); test: FACS binding analysis at 200, 100, 50, 25 and 12.5 ng/ml; cells and target not named in legend paragraph 42 (anti-PD-1 mAbs)
[4] = target: Programmed Death 1 (PD-1) (UniProt Q15116); test: FACS ligand blocking: mAb titrated, signal of ligand-Ig bound to PD-1; legend paragraph 46 names PD-L1-Ig and PD-L2-Ig as blocked ligands for FIG. 8A; cells not named
[5] = target: Programmed Death 1 (PD-1) (UniProt Q15116); test: FACS ligand blocking: mAb titrated, signal of PD-L2-Ig (blocked ligand) bound to PD-1; cells not named

Sequences of proteins named here, by UniProt entry; tags and fusion partners are left off. A change or cut given only in a name is not applied to a line headed by its entry. Residues count along the entry.
UniProt Q15116: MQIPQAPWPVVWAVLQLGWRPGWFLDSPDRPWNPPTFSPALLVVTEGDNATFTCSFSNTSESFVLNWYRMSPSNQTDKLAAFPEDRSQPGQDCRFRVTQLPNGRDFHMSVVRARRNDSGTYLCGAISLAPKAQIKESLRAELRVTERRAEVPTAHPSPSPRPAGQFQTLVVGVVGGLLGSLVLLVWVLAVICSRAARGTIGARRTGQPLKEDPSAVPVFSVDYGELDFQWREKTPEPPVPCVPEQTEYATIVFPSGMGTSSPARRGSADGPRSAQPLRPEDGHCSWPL
PD-1 on PD-1-expressing 300.19 cells: residues 25-288 of Q15116
Programmed Death 1 (PD-1): residues 25-167 of Q15116

Measured: binding

B1: BAP049-hum01 (antibody, human IgG4 S228P, kappa, V domains shown)
VH: EVQLVQSGAEVKKPGESLRISCKGSGYTFTTYWMHWVRQATGQGLEWMGNIYPGTGGSNFDEKFKNRVTITADKSTSTAYMELSSLRSEDTAVYYCTRWTTGTGAYWGQGTTVTVSS
VL: EIVLTQSPATLSLSPGERATLSCKSSQSLLDSGNQKNFLTWYQQKPGQAPRLLIYWASTRESGVPSRFSGSGSGTEFTLTISSLQPDDFATYYCQNDYSYPYTFGQGTKVEIKR
binds: all assays above

B2: BAP049-hum05 (antibody, human IgG4 S228P, kappa, V domains shown)
VH: EVQLVQSGAEVKKPGESLRISCKGSGYTFTTYWMHWVRQATGQGLEWMGNIYPGTGGSNFDEKFKNRVTITADKSTSTAYMELSSLRSEDTAVYYCTRWTTGTGAYWGQGTTVTVSS
VL: EIVLTQSPATLSLSPGERATLSCKSSQSLLDSGNQKNFLTWYQQKPGKAPKLLIYWASTRESGVPSRFSGSGSGTDFTFTISSLQPEDIATYYCQNDYSYPYTFGQGTKVEIKR
binds: all assays above

From patent US20190175609A1, “THERAPEUTIC USES OF A C-RAF INHIBITOR” (Novartis AG, priority 2016, published 2019)
